Results deposited as PubChem BioAssay AID652272 (Drosophila RNAi Screening Center, 2013)
In all, the deposit lists about 21,000 reagents; this is a random part of those with a known target gene and a result. In the full data, 503 (2.4%) got an active call. 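Raw plate light values, not normalised; calls rest on replicate z-scores that were not deposited; hits include reporter decreases as well as increases.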 The numbers tell different reagents against one gene apart. Not stated in the record: the amount of reagent, the time to read-out.

Purpose: 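Genes whose knock-down decreases or increases Hedgehog reporter output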 (primary screen)
Cell system: Drosophila clone 8 (Cl8) cells
Knock-down reagent: long dsRNA against Drosophila genes
Read-out: 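Plate reader light from a firefly reporter under a ptc promoter fragment that responds to Hedgehog, with Renilla light as transfection reference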
Direction: firefly Hh reporter signal: higher = more ptc reporter light; Renilla reference signal: higher = more Renilla control light
Rule for the call: 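Called a hit if the two-replicate mean z-score lies below -2 or above +3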
Meaning of the calls: active = hit: reporter lowered or raised; inactive = not a hit

predicted target | reagent no. | firefly Hh reporter signal, replicate 1 | firefly Hh reporter signal, replicate 2 | firefly Hh reporter signal, replicate 3 | Renilla reference signal, replicate 1 | Renilla reference signal, replicate 2 | outcome
CG9286 | 1 | 70422 | 66380 | – | 3760 | 3204 | inactive
Zip48C | 1 | 84589 | 51509 | – | 4038 | 2369 | inactive
CG17233 | 1 | 52184 | 64105 | – | 2994 | 3287 | inactive
CG3280 (retired record) | 1 | 50464 | 41622 | 56631 | 3329 | 3760 | inactive
salto | 1 | 69773 | 37318 | – | 2828 | 1549 | inactive
CG11664 | 1 | 51143 | 2.42e5 | – | 1385 | 9675 | inactive
Polr3A | 1 | 64249 | 1.61e5 | – | 2523 | 7209 | inactive
spirit | 1 | 75092 | 75200 | – | 1989 | 2080 | inactive
Pcl | 1 | 1.67e5 | 94256 | – | 6545 | 4122 | inactive
CLS | 1 | 7.06e5 | 1.58e5 | – | 34247 | 4857 | inactive
fau | 1 | 1.52e5 | – | – | 3193 | – | inactive
fau | 2 | 1.85e5 | – | – | 3792 | – | inactive
fau | 3 | 1.29e5 | 93564 | – | 5328 | 3862 | inactive
fau | 4 | 52951 | 1.36e5 | – | 1735 | 3696 | inactive
fau | 5 | 1.20e5 | 4.76e5 | 1.91e5 | 2112 | 2841 | inactive
CG34398 | 1 | 9.17e5 | 5.06e5 | – | 45828 | 20482 | inactive
CG34398 | 2 | 58002 | 19545 | – | 1468 | 2903 | inactive
CG34398 | 3 | 98818 | 1.39e5 | – | 3048 | 4090 | inactive
CG34398 | 4 | 73984 | 46626 | – | 1328 | 4352 | inactive
boss | 1 | 5.12e5 | 89891 | – | 28689 | 6195 | inactive
CG3611 | 1 | 66630 | 41667 | – | 1639 | 1505 | inactive
blot | 1 | 3.08e5 | – | – | 7120 | – | inactive
blot | 2 | 74294 | 45500 | – | 3194 | 2141 | inactive
